Experimental data published in the supplement of paper PMC5393889.
Some of the results follow.

System: Caenorhabditis elegans N2
Assay: aldicarb interaction hit call (worm growth perturbed in combination with 10 uM aldicarb in both replicates, no effect as single agent) (binary (1 = interacts)); higher = interacts with aldicarb (growth perturbed)
Details: first compound 1.5 µM; aldicarb concentration 10 µM; 6 days; 20 °C

Question: With `Cc1ccc2[nH]c3c(c2c1)CCCC3/N=C/c1ccc(F)cc1` (stereo not drawn) [wact-42] + CNC(=O)O/N=C/C(C)(C)SC [aldicarb] as the molecule, how does the “aldicarb interaction hit call” value read?
Answer: inactive: 0

Question: How did the “aldicarb interaction hit call” value turn out when `C#CCNC(=O)CSc1nnc(-c2cc3c(s2)CCC(C)C3)o1` (stereo not drawn) [clearyn] + CNC(=O)O/N=C/C(C)(C)SC [aldicarb] was run?
Answer: inactive: 0

Question: With `O=C(Nc1ccc(Cl)c(Cl)c1)OCC(F)(F)F` [wact-398] + CNC(=O)O/N=C/C(C)(C)SC [aldicarb] as the molecule, how does the “aldicarb interaction hit call” value read?
Answer: inactive: 0

Question: `S=C(NCc1ccc(Cl)cc1)Nc1ccc(Cl)cc1` [wact-368] + CNC(=O)O/N=C/C(C)(C)SC [aldicarb] was tested. Which “aldicarb interaction hit call” value did it give?
Answer: inactive: 0

Question: Which “aldicarb interaction hit call” value does the source give for `Oc1ccccc1/C=N/Nc1cccc2cccnc12` [wact-372] + CNC(=O)O/N=C/C(C)(C)SC [aldicarb] here?
Answer: active: 1

Question: `Cc1ccccc1C(=O)N1CCN(c2ccc(NC(=O)c3cc4ccccc4o3)cc2)CC1` [wact-90] + CNC(=O)O/N=C/C(C)(C)SC [aldicarb] was tested. Which “aldicarb interaction hit call” value did it give?
Answer: inactive: 0

Question: For `Cl.FC(F)(F)c1cccc(OCCCCn2ccnc2)c1` [wact-155] + CNC(=O)O/N=C/C(C)(C)SC [aldicarb], which “aldicarb interaction hit call” value is on record?
Answer: inactive: 0

Question: Which “aldicarb interaction hit call” value does the source give for `O=C(c1cc(Cl)ccc1Cl)N1CCN(c2cccc(C(F)(F)F)c2)CC1` [wact-65] + CNC(=O)O/N=C/C(C)(C)SC [aldicarb] here?
Answer: inactive: 0

Question: With `CCCN1CCCC(C(=O)Nc2ccc(-c3cccc(OC)c3)cc2)C1` (stereo not drawn) [wact-270] + CNC(=O)O/N=C/C(C)(C)SC [aldicarb] as the molecule, how does the “aldicarb interaction hit call” value read?
Answer: inactive: 0

Question: With `CCOc1ccc(C(=O)c2cccs2)cc1` [wact-471] + CNC(=O)O/N=C/C(C)(C)SC [aldicarb] as the molecule, how does the “aldicarb interaction hit call” value read?
Answer: inactive: 0

Question: How did the “aldicarb interaction hit call” value turn out when `N/C(Cc1cccs1)=N\OC(=O)COc1ccc(Br)cc1` [wact-449] + CNC(=O)O/N=C/C(C)(C)SC [aldicarb] was run?
Answer: inactive: 0

Question: For `c1ccc(-c2ccc(-c3n[nH]cc3CNC3CCC3)cc2)cc1` [wact-251] + CNC(=O)O/N=C/C(C)(C)SC [aldicarb], which “aldicarb interaction hit call” value is on record?
Answer: inactive: 0

Question: `O=[N+]([O-])c1ccc(NC(=S)NCc2ccc(F)cc2)cc1` [wact-467] + CNC(=O)O/N=C/C(C)(C)SC [aldicarb] was tested. Which “aldicarb interaction hit call” value did it give?
Answer: inactive: 0

Question: With `CSc1ccccc1C(=O)NCCSC(C)(C)C` [wact-610] + CNC(=O)O/N=C/C(C)(C)SC [aldicarb] as the molecule, how does the “aldicarb interaction hit call” value read?
Answer: inactive: 0

Question: `O=C(Nc1cccc(C(F)(F)F)c1)c1ccc(Cl)cc1Cl` [wact-22] + CNC(=O)O/N=C/C(C)(C)SC [aldicarb] was tested. Which “aldicarb interaction hit call” value did it give?
Answer: active: 1

Question: How did the “aldicarb interaction hit call” value turn out when `OCC1CCCN(Cc2ccc3ccc4cccc5ccc2c3c45)C1` (stereo not drawn) [wact-219] + CNC(=O)O/N=C/C(C)(C)SC [aldicarb] was run?
Answer: inactive: 0

Question: `Cc1ccc(C(=O)/C=C(\c2ccccc2)N2CCCCC2)cc1` [wact-379] + CNC(=O)O/N=C/C(C)(C)SC [aldicarb] was tested. Which “aldicarb interaction hit call” value did it give?
Answer: inactive: 0

Question: `Cc1c(Cl)cccc1Nc1nc(-c2ccncc2)cs1` [wact-474] + CNC(=O)O/N=C/C(C)(C)SC [aldicarb] was tested. Which “aldicarb interaction hit call” value did it give?
Answer: inactive: 0

Question: How did the “aldicarb interaction hit call” value turn out when `CCCn1c2ccccc2c2nnc(SCc3ccncc3)nc21` [wact-585] + CNC(=O)O/N=C/C(C)(C)SC [aldicarb] was run?
Answer: inactive: 0

Question: How did the “aldicarb interaction hit call” value turn out when `Br.Cc1nn2cc(-c3ccc(Cl)cc3)nc2s1` [wact-430] + CNC(=O)O/N=C/C(C)(C)SC [aldicarb] was run?
Answer: inactive: 0

Question: `O=C(Nc1cccc(Cl)c1)N1CCN(c2ccc([N+](=O)[O-])cc2)CC1` [wact-31] + CNC(=O)O/N=C/C(C)(C)SC [aldicarb] was tested. Which “aldicarb interaction hit call” value did it give?
Answer: inactive: 0

Question: Which “aldicarb interaction hit call” value does the source give for `Cc1nc(CN2CCN(Cc3nc(-c4ccc(C(F)(F)F)cc4)no3)CC2)cs1` [wact-285] + CNC(=O)O/N=C/C(C)(C)SC [aldicarb] here?
Answer: inactive: 0

Question: For `CN(CC1CCN(CCc2ccc(Cl)cc2)CC1)C1CCOCC1` [wact-319] + CNC(=O)O/N=C/C(C)(C)SC [aldicarb], which “aldicarb interaction hit call” value is on record?
Answer: inactive: 0

Question: Which “aldicarb interaction hit call” value does the source give for `CCOc1ccc(/C=C/C(=O)c2ccco2)cc1` [wact-89] + CNC(=O)O/N=C/C(C)(C)SC [aldicarb] here?
Answer: inactive: 0

Question: `CN(Cc1cccn1-c1nccs1)CC1CCCN(CCc2ccc(Cl)cc2)C1` (stereo not drawn) [wact-252] + CNC(=O)O/N=C/C(C)(C)SC [aldicarb] was tested. Which “aldicarb interaction hit call” value did it give?
Answer: inactive: 0

Question: With `CN(Cc1ccc2cc(F)ccc2n1)CC1CCN(CCc2cccc(F)c2)CC1` [wact-287] + CNC(=O)O/N=C/C(C)(C)SC [aldicarb] as the molecule, how does the “aldicarb interaction hit call” value read?
Answer: inactive: 0

Question: For `C(#Cc1cccc2ccccc12)c1ccccc1` [wact-341] + CNC(=O)O/N=C/C(C)(C)SC [aldicarb], which “aldicarb interaction hit call” value is on record?
Answer: inactive: 0

Question: With `O=C(Nc1ccc(Cl)c(Cl)c1)OCc1ccco1` [wact-418] + CNC(=O)O/N=C/C(C)(C)SC [aldicarb] as the molecule, how does the “aldicarb interaction hit call” value read?
Answer: inactive: 0
